The values that follow come from the supplement of paper PMC12595434, “Development of retinoid nuclear receptor pathway antagonists through targeting aldehyde dehydrogenase 1A3” (iScience, 2025).

By UniProt entry, the sequences of proteins in these tests, tags left out. Where a name states a change or a piece, a line headed by the entry shows the natural chain unless it says otherwise.
UniProt Q7Z4Q2: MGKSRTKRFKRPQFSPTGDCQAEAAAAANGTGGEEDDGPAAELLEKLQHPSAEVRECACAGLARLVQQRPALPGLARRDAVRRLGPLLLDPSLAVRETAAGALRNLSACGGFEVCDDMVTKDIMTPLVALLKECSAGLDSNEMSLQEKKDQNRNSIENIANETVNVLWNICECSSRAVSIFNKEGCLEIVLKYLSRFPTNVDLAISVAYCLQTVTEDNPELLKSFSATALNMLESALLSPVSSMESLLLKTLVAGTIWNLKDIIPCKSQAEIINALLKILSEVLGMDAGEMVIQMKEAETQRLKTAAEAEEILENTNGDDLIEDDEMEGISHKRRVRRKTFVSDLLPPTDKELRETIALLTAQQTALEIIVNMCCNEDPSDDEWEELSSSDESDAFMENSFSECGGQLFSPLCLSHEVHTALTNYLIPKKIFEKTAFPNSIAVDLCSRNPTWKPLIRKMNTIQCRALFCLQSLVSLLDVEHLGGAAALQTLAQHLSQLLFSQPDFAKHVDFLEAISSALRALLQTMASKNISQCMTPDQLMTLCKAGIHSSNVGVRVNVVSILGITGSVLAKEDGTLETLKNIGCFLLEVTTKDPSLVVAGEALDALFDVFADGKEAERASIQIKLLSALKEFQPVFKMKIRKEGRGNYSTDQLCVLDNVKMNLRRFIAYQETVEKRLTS
UniProt Q86VN1: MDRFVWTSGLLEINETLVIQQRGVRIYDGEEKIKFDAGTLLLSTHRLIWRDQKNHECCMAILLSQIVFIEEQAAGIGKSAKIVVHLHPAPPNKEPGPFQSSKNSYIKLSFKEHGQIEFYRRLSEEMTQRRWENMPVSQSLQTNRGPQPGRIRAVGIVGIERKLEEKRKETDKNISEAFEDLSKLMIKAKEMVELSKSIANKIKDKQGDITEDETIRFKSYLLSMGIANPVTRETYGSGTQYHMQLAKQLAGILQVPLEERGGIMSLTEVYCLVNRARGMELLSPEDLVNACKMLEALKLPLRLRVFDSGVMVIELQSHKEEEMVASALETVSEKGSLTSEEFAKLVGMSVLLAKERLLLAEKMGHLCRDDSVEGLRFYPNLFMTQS
UniProt Q86UL3: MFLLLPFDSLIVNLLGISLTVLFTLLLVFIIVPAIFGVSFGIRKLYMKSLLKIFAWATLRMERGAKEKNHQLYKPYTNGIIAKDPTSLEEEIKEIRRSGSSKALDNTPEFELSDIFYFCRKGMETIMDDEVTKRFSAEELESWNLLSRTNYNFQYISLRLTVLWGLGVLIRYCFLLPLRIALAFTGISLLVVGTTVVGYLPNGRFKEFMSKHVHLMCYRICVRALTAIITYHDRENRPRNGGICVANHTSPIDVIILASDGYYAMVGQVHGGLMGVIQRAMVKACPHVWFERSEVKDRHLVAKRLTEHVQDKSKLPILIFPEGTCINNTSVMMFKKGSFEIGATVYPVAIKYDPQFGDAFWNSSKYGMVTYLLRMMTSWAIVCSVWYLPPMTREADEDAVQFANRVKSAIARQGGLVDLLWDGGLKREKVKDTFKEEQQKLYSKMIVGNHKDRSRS
UniProt Q86UW6: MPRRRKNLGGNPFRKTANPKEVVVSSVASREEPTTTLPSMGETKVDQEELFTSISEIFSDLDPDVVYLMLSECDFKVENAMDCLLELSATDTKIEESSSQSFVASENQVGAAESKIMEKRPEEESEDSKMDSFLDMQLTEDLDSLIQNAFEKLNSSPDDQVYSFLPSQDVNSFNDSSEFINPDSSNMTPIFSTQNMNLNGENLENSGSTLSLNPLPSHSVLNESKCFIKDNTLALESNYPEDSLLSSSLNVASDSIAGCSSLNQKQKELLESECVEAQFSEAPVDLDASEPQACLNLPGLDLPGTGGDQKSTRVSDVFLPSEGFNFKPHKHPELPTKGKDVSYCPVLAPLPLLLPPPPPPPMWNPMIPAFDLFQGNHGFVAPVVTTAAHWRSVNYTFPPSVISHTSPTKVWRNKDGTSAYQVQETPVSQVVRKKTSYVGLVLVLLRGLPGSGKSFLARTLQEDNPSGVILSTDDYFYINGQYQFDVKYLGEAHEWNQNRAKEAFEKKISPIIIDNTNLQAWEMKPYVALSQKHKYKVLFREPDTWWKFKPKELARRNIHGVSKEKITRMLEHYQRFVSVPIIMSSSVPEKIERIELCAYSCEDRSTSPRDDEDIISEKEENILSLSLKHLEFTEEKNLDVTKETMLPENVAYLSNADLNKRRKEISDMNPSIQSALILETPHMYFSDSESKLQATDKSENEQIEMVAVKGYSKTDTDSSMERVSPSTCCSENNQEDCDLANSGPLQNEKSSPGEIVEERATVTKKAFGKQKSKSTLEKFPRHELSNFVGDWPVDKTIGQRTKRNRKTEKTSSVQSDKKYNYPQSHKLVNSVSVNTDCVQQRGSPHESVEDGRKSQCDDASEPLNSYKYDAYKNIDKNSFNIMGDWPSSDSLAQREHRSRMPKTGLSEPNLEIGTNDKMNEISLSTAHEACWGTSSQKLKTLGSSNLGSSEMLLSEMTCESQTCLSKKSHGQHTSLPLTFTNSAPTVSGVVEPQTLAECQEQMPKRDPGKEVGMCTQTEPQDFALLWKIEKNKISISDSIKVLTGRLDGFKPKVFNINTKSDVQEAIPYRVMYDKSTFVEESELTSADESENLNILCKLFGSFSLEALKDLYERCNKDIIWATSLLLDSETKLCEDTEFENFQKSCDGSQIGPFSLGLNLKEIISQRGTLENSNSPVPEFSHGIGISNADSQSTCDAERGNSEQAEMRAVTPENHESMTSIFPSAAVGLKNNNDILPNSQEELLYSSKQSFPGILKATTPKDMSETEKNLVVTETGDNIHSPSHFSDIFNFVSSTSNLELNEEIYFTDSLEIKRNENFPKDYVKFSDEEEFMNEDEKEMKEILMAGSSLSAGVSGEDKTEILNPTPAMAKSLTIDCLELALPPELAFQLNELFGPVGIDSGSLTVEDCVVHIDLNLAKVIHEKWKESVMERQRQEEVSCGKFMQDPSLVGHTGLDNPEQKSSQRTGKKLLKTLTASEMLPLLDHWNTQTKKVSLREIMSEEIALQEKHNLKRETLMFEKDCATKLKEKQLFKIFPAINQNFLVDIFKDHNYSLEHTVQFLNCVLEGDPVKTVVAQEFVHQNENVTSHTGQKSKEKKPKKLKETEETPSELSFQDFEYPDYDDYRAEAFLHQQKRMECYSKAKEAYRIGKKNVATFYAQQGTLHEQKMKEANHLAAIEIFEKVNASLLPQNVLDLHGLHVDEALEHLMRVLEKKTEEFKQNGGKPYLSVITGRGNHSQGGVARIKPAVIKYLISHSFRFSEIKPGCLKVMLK
UniProt Q7L523, whole entry: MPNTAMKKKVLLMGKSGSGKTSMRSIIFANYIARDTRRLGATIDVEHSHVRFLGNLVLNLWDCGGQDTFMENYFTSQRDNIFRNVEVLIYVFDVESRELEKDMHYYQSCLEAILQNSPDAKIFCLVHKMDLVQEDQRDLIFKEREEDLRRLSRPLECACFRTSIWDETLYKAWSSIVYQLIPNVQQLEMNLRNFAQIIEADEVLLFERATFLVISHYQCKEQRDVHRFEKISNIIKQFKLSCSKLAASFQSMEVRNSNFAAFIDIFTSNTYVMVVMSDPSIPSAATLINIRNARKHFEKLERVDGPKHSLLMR
UniProt Q7Z5L2: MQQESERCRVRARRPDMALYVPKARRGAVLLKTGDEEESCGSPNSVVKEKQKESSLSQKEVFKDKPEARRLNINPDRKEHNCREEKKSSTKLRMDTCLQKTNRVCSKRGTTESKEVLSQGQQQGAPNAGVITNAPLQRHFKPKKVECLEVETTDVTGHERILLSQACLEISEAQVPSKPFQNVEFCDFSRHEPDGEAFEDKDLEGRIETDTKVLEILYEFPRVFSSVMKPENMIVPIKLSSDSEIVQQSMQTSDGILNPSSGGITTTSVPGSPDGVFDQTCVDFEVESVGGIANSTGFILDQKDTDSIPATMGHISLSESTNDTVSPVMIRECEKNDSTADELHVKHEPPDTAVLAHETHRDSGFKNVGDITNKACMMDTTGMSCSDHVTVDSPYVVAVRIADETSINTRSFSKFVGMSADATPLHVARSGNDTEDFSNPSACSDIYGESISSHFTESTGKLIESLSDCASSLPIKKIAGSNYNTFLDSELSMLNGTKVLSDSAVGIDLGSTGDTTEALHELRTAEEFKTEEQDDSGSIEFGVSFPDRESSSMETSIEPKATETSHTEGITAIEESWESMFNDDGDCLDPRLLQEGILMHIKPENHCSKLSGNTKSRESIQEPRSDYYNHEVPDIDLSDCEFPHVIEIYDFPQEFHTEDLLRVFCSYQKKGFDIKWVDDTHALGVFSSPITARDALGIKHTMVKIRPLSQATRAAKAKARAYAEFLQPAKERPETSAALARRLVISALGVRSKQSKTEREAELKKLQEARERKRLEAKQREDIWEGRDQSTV
UniProt Q71SY5: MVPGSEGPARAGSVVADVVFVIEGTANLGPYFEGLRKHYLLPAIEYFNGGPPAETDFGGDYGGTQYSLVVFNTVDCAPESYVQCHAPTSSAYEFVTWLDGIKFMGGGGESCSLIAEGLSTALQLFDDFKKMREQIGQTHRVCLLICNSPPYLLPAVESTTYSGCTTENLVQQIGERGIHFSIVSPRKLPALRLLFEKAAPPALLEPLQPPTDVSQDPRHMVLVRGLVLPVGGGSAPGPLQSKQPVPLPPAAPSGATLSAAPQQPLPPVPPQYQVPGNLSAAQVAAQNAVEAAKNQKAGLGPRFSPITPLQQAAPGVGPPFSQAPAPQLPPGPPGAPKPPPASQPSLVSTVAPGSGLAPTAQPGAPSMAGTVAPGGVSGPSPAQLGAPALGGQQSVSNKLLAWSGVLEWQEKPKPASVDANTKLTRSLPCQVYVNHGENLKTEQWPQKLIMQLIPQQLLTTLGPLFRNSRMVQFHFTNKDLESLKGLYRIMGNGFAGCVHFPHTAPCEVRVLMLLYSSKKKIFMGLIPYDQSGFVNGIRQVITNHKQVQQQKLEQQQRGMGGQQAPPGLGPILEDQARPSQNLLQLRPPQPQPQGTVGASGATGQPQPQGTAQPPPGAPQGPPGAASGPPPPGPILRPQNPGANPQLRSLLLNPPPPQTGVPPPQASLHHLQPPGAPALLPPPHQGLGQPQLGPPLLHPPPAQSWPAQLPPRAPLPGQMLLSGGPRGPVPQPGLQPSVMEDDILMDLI
UniProt Q6UW78: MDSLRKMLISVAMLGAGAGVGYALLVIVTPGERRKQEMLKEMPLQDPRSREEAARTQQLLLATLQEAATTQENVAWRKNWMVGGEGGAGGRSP
UniProt Q712K3: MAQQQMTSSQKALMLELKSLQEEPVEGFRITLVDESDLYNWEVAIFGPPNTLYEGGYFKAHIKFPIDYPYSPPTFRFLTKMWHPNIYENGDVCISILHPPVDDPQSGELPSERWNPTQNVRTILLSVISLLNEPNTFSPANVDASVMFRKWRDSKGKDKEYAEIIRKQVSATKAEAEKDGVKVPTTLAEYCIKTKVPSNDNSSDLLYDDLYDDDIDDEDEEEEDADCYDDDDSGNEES
UniProt Q6ZYL4: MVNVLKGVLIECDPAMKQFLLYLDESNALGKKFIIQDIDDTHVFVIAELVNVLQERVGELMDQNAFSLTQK
UniProt Q6Y2X3: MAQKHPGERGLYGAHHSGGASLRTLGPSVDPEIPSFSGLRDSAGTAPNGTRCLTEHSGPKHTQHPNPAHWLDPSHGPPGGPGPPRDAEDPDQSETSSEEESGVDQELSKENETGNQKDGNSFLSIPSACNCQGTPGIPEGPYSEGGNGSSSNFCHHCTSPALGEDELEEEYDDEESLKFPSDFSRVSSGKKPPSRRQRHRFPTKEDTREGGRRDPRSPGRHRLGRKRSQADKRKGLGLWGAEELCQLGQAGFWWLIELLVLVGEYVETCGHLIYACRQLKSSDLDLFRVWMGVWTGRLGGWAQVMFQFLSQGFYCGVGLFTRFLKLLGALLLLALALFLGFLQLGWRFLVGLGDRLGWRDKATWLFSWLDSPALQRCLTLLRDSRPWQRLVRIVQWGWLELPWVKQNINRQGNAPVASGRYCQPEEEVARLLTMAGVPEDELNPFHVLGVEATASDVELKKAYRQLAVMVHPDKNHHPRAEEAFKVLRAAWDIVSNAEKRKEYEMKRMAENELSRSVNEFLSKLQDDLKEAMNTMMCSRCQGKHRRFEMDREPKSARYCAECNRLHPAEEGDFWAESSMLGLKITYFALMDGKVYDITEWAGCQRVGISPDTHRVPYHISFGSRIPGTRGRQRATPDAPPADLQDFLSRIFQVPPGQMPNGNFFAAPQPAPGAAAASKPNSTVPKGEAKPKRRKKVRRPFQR
UniProt Q6ZRY4, whole entry: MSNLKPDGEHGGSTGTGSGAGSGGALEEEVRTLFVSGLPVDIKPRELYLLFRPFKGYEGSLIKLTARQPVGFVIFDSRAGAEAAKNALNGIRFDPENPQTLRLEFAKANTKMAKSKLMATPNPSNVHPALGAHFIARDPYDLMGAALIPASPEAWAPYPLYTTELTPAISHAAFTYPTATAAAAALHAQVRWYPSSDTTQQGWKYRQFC

Some of the results follow. Single values of this set are uncertain.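 Many melting curves are irregular; where none melted, Tm was taken as 64 °C.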

Compound in this assay: CCc1cnccc1C(=O)Nc1cc2c(cc1F)NC(=O)CC2
Description: melting temperature shift (DMSO Tm minus MBE1-treated Tm) in cellular thermal proteome profiling; higher = less thermal stabilization by MBE1 (negative = stabilized by MBE1). The conditions noted are these: A375.

For the target UniProt Q7Z7A4, the melting temperature shift (MBE1 concentration: 100 nM) was found to be 1.03 °C and the melting temperature shift (MBE1 concentration: 1 uM) worked out at 0.782 °C.
On the same counts, the results for ARHGAP27 (UniProt Q6ZUM4) are -0.779 °C and 1.72 °C.
Regarding HEATR3 (UniProt Q7Z4Q2), the melting temperature shift was -0.0518 °C (MBE1 concentration: 100 nM) and 0.715 °C (MBE1 concentration: 1 uM).
VPS36 (UniProt Q86VN1): the melting temperature shift was found to be 0.055 °C (MBE1 concentration: 100 nM) and 0.951 °C (MBE1 concentration: 1 uM).
The corresponding values for GPAT4 (UniProt Q86UL3) are -0.811 °C and -0.122 °C.
For UniProt Q6P9B9, the melting temperature shift runs as follows: (MBE1 concentration: 100 nM) 0.427 °C; (MBE1 concentration: 1 uM) 0.311 °C.
Regarding UniProt Q86UW6, the melting temperature shift (MBE1 concentration: 100 nM) is -0.781 °C and the melting temperature shift (MBE1 concentration: 1 uM) is -0.814 °C.
For the target CYB5R4 (UniProt Q7L1T6), the melting temperature shift (MBE1 concentration: 100 nM) was 0 °C and the melting temperature shift (MBE1 concentration: 1 uM) turned out to be 0.223 °C.
On to UniProt Q7L523, for which the melting temperature shift reads like this: (MBE1 concentration: 100 nM) -3.76 °C; (MBE1 concentration: 1 uM) 1 °C.
For the target BRAT1 (UniProt Q6PJG6), the melting temperature shift runs as follows: (MBE1 concentration: 100 nM) -0.634 °C; (MBE1 concentration: 1 uM) 0.301 °C.
The corresponding values for UniProt Q6ZUT6 are -0.641 °C and -0.128 °C.
Turning to SRGAP1 (UniProt Q7Z6B7), the melting temperature shift stood at 1.04 °C (MBE1 concentration: 100 nM) and 0.47 °C (MBE1 concentration: 1 uM).
On the same counts, the results for B3GLCT (UniProt Q6Y288) are -0.798 °C and 0.402 °C.
With ALKBH5 (UniProt Q6P6C2), the melting temperature shift (MBE1 concentration: 100 nM) is -0.397 °C and the melting temperature shift (MBE1 concentration: 1 uM) came to 0.531 °C.
As for R3HCC1L (UniProt Q7Z5L2), the melting temperature shift was -0.494 °C (MBE1 concentration: 100 nM) and 1.74 °C (MBE1 concentration: 1 uM).
Regarding ZC3HAV1 (UniProt Q7Z2W4), the melting temperature shift is, setting by setting: (MBE1 concentration: 100 nM) -1.03 °C; (MBE1 concentration: 1 uM) -0.821 °C.
On the same counts, the results for UniProt Q6ZTW0 are -0.588 °C and 0.327 °C.
Take BCOR (UniProt Q6W2J9): the melting temperature shift is -2.16 °C (MBE1 concentration: 100 nM) and -1.33 °C (MBE1 concentration: 1 uM).
Take MED25 (UniProt Q71SY5): the melting temperature shift came to 0.055 °C (MBE1 concentration: 100 nM) and 0.733 °C (MBE1 concentration: 1 uM).
On to UniProt Q71F23, for which the melting temperature shift by setting is: (MBE1 concentration: 100 nM) -3.29 °C; (MBE1 concentration: 1 uM) -1.52 °C.
Regarding BRAP (UniProt Q7Z569), the melting temperature shift is, setting by setting: (MBE1 concentration: 100 nM) 0.0988 °C; (MBE1 concentration: 1 uM) -0.32 °C.
Take WDR74 (UniProt Q6RFH5): the melting temperature shift by setting is: (MBE1 concentration: 100 nM) -0.93 °C; (MBE1 concentration: 1 uM) -0.119 °C.
For the target MPRIP (UniProt Q6WCQ1), the melting temperature shift (MBE1 concentration: 100 nM) is 0.824 °C and the melting temperature shift (MBE1 concentration: 1 uM) came out at 0.00611 °C.
The corresponding values for UniProt Q6UW78 are 0.055 °C and 0.238 °C.
On the same counts, the results for MARK2 (UniProt Q7KZI7) are -0.696 °C and -0.485 °C.
As to FBXO38 (UniProt Q6PIJ6), the melting temperature shift by setting is: (MBE1 concentration: 100 nM) 0.11 °C; (MBE1 concentration: 1 uM) 0.959 °C.
Regarding AFTPH (UniProt Q6ULP2), the melting temperature shift by setting is: (MBE1 concentration: 100 nM) 0.342 °C; (MBE1 concentration: 1 uM) 0.586 °C.
On to TTC33 (UniProt Q6PID6), for which the melting temperature shift is, setting by setting: (MBE1 concentration: 100 nM) -2.94 °C; (MBE1 concentration: 1 uM) -1.58 °C.
On the same counts, the results for LARP1 (UniProt Q6PKG0) are -0.393 °C and 0.58 °C.
In the case of UBE2R2 (UniProt Q712K3), the melting temperature shift runs as follows: (MBE1 concentration: 100 nM) -0.865 °C; (MBE1 concentration: 1 uM) 12.3 °C.
As for UniProt Q6ZRQ5, the melting temperature shift by setting is: (MBE1 concentration: 100 nM) 0.664 °C; (MBE1 concentration: 1 uM) 2.49 °C.
On the same counts, the results for LRRC8D (UniProt Q7L1W4) are -0.872 °C and 0.359 °C.
For UniProt Q7L513, the melting temperature shift by setting is: (MBE1 concentration: 100 nM) -0.47 °C; (MBE1 concentration: 1 uM) 0.906 °C.
As for UniProt Q6S8J3, the melting temperature shift by setting is: (MBE1 concentration: 100 nM) -0.105 °C; (MBE1 concentration: 1 uM) 0.148 °C.
As for UniProt Q86SX3, the melting temperature shift (MBE1 concentration: 100 nM) worked out at 2 °C and the melting temperature shift (MBE1 concentration: 1 uM) amounted to 0.965 °C.
For UniProt Q6ZYL4, the melting temperature shift is -0.414 °C (MBE1 concentration: 100 nM) and -0.489 °C (MBE1 concentration: 1 uM).
In the case of UniProt Q6Y2X3, the melting temperature shift was determined as 1.34 °C (MBE1 concentration: 100 nM) and 1.47 °C (MBE1 concentration: 1 uM).
BTN2A1 (UniProt Q7KYR7): the melting temperature shift (MBE1 concentration: 100 nM) was -0.872 °C and the melting temperature shift (MBE1 concentration: 1 uM) was found to be 0.711 °C.
On the same counts, the results for UniProt Q6ZPD9 are 0.44 °C and 0.403 °C.
For CCDC186 (UniProt Q7Z3E2), the melting temperature shift (MBE1 concentration: 100 nM) is 1.64 °C and the melting temperature shift (MBE1 concentration: 1 uM) amounted to 0.598 °C.
Consider UniProt Q7Z494, for which the melting temperature shift is, setting by setting: (MBE1 concentration: 100 nM) -0.245 °C; (MBE1 concentration: 1 uM) -0.507 °C.
RBBP6 (UniProt Q7Z6E9): the melting temperature shift was -1.67 °C (MBE1 concentration: 100 nM) and -1.09 °C (MBE1 concentration: 1 uM).
As to UniProt Q7Z2Z1, the melting temperature shift is -0.952 °C (MBE1 concentration: 100 nM) and 0.181 °C (MBE1 concentration: 1 uM).
As to UniProt Q6ZRY4, the melting temperature shift was -2.2 °C (MBE1 concentration: 100 nM) and -0.849 °C (MBE1 concentration: 1 uM).
On to UniProt Q6PCB8, for which the melting temperature shift is -2.53 °C (MBE1 concentration: 100 nM) and -2.53 °C (MBE1 concentration: 1 uM).
Turning to MAVS (UniProt Q7Z434), the melting temperature shift (MBE1 concentration: 100 nM) is -0.221 °C and the melting temperature shift (MBE1 concentration: 1 uM) was found to be 0.121 °C.
On the same counts, the results for KDELC2 (UniProt Q7Z4H8) are -0.999 °C and 0.706 °C.
